According to the supplement of paper PMC10849652:
The other results are listed elsewhere or left out.

Sequences of proteins named here, by UniProt entry; tags and fusion partners are left off. A change or cut given only in a name is not applied to a line headed by its entry.
UniProt P52655, whole entry, looked up: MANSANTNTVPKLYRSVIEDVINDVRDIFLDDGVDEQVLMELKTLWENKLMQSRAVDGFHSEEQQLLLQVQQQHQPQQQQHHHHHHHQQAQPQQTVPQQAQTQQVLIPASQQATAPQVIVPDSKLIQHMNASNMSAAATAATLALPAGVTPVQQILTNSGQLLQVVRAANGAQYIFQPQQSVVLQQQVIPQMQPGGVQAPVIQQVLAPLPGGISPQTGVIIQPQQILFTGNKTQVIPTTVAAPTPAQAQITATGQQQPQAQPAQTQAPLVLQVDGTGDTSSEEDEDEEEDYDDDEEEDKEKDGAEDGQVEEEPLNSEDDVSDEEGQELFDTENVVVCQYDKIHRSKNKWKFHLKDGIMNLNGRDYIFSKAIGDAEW
UniProt Q13889: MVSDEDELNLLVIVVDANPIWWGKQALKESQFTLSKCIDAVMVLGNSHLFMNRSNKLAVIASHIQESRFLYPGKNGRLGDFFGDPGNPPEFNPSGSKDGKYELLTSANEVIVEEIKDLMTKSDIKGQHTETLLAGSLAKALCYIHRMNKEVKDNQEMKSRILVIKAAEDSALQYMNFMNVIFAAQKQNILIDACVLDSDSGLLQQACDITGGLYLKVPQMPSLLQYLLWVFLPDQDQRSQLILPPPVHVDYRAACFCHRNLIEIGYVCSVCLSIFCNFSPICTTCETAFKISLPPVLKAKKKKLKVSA
UniProt Q03013: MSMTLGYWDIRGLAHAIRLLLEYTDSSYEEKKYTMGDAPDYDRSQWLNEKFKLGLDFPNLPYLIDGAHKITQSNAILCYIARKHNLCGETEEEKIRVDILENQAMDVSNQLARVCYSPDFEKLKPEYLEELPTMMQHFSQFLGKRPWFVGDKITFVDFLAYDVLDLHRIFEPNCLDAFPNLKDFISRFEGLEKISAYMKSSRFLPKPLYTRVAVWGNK
UniProt P40939: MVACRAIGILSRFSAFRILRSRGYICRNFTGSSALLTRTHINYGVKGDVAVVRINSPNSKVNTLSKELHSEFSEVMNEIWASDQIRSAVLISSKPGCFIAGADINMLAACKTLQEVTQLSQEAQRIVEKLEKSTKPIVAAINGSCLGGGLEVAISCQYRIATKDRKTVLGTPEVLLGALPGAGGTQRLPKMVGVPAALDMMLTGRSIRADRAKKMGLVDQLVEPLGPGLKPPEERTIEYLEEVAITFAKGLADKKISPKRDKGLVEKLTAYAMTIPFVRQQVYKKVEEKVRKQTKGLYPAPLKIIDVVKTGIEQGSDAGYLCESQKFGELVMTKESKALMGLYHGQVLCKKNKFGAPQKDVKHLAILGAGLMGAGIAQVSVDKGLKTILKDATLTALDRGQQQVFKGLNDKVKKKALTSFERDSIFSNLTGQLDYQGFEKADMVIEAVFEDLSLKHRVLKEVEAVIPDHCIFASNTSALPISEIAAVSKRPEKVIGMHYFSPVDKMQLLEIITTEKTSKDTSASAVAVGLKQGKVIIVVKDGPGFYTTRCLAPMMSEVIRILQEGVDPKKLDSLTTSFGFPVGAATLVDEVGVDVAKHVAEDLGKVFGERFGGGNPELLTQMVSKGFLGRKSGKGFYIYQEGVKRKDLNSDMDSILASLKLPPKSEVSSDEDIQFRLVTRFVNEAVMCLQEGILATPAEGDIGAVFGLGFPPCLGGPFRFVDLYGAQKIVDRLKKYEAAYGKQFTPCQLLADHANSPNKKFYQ
UniProt Q9BXW7: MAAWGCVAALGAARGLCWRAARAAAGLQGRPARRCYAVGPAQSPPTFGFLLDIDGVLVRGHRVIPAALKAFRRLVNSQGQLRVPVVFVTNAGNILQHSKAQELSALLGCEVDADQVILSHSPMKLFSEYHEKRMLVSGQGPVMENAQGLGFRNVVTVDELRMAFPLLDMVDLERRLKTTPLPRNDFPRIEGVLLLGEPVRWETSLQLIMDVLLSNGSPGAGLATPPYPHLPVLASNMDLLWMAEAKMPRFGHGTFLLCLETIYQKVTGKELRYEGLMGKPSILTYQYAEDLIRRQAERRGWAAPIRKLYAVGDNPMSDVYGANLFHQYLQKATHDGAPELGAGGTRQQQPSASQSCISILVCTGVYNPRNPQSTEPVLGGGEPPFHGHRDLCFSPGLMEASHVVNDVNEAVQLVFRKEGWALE
UniProt P10412, whole entry, looked up: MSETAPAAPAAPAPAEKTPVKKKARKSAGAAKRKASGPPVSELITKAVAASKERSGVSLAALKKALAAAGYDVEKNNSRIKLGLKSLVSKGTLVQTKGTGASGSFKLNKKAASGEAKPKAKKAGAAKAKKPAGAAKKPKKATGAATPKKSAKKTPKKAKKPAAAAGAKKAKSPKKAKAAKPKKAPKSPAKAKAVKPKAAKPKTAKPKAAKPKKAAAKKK
UniProt Q9H583: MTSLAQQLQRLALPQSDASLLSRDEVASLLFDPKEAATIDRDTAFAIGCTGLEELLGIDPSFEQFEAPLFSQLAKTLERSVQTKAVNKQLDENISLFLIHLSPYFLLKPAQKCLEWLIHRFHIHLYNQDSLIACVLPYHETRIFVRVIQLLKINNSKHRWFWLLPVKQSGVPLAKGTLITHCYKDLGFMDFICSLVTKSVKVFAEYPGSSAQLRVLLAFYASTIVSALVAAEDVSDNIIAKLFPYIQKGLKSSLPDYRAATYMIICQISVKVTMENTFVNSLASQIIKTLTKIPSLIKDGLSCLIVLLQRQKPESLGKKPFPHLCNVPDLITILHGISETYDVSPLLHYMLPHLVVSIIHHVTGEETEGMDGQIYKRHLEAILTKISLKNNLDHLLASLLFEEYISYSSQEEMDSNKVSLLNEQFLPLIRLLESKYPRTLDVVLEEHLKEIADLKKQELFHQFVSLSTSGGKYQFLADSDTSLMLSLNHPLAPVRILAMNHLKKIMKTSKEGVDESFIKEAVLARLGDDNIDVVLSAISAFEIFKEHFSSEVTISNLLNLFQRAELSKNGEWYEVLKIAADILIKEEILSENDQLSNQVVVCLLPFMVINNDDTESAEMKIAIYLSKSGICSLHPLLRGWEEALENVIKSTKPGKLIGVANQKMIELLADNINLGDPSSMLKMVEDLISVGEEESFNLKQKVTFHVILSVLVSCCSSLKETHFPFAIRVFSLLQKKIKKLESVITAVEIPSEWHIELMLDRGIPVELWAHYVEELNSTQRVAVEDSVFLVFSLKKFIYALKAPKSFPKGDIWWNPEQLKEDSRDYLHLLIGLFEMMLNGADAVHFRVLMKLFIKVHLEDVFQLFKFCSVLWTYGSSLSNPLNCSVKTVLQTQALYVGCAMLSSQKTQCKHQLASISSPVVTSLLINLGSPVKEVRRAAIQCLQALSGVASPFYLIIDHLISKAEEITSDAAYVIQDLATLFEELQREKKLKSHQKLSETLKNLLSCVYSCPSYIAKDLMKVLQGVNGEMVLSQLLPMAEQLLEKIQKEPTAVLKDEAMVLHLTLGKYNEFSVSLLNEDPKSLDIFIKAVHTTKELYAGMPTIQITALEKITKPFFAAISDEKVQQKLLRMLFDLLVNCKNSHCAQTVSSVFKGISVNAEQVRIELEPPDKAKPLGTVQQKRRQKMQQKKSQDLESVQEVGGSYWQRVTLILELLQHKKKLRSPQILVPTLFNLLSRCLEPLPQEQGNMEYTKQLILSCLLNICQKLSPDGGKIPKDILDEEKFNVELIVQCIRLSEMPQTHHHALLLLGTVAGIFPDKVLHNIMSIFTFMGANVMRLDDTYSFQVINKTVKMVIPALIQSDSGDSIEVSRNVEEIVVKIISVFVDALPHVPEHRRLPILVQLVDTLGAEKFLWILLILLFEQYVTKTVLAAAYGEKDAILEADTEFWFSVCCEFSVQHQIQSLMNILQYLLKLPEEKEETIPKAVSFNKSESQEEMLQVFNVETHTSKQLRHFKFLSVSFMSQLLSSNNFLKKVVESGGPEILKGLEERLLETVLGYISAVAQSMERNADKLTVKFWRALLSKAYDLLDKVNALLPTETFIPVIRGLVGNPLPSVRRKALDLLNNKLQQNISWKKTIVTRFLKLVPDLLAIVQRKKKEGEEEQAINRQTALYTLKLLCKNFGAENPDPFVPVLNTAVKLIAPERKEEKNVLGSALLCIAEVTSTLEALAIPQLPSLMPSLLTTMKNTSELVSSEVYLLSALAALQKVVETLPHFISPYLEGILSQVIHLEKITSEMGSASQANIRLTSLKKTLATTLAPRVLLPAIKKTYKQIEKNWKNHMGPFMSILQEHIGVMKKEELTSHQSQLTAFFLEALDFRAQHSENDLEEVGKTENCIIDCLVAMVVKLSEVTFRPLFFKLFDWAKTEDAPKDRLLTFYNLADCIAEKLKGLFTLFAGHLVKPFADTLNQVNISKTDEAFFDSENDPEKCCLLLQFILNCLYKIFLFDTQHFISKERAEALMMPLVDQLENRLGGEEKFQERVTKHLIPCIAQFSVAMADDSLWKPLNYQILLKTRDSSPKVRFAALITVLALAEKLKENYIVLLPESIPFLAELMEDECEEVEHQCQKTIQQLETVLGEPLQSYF

Columns and labels:
Assay in all cases: log2 fold change, soluble protein after heating vs DMSO (PISA); higher = thermal stabilisation; K562 lysate, 10 uM; active = over 0.2 and 3.5 SD of the protein, either way, in both replicates (recomputed)
[1] = compound: NCC(=O)Nc1ccc(-n2nc(C(F)(F)F)cc2-c2ccc3c(ccc4ccccc43)c2)cc1
In short: (§1)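 To prepare the extract, K562 pellets were dounce-homogenised in PBS pH 7.4 with 1 mM MgCl2, giving crude material at 1 mg/mL protein. This was treated with 10 μM compound for 30 min, then heated in aliquots for 3 min over 48°C-58°C before pooling and addition of NP-40 to 0.5% at 4°C. Centrifugation at 21,000xg for 90 min left soluble protein in the supernatant, which TMTpro 16plex LC-MS/MS quantified with equalised channel sums. Results are log-two fold changes in thermal stability compared with solvent controls, from duplicates.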

[2] = compound: O=C(CCCCCCC(=O)Nc1ccccc1)NO [vorinostat]
In short: as §1

[3] = compound: O=C(O)c1ccc2c(c1)nc(Nc1cccc(Cl)c1)c1ccncc12 [silmitasertib]
In short: as §1

[4] = compound: O=C1NC(=O)C(c2cnc3ccccn23)=C1c1cn2c3c(cc(F)cc13)CN(C(=O)N1CCCCC1)CC2
In short: as §1

[5] = compound: c1cn2cc(-c3ccc4cn[nH]c4c3)nc(Nc3ccc(N4CCOCC4)cc3)c2n1 [entospletinib]
In short: as §1

Measured: log2 fold change

GTF2A1 (UniProt P52655)
inactive: [1] -0.029 | [2] 0.094 | [3] -0.043 | [4] 0.052 | [5] 0.039

GTF2H3 (UniProt Q13889)
inactive: [1] -0.014 | [2] -0.022 | [3] -0.033 | [4] 0.016 | [5] 0.042

H2AFX (UniProt P16104)
inactive: [1] -0.019 | [2] 0.126 | [3] 0.004 | [4] 0.005 | [5] -0.077

GSTM4 (UniProt Q03013)
active: [3] 0.301
inactive: [1] 0.025 | [2] 0.015 | [4] 0.012 | [5] -0.03

HADHA (UniProt P40939)
inactive: [1] 0.052 | [2] -0.159 | [3] -0.026 | [4] 0.302 | [5] 0.027

HDHD5 (UniProt Q9BXW7)
inactive: [1] 0.018 | [3] 0.043 | [4] -0.002 | [5] -0.059
active: [2] -0.249

H4C1 (UniProt P62805)
inactive: [1] 0.043 | [2] 0.09 | [3] 0.007 | [4] -0.038 | [5] -0.057

H1-4 (UniProt P10412)
inactive: [1] -0.014 | [2] 0.168 | [3] -0.005 | [4] 0.005 | [5] 0.009

HEATR1 (UniProt Q9H583)
inactive: [1] 0.052 | [2] -0.054 | [3] 0.025 | [4] 0.019 | [5] 0.02
